Data reported in PubChem BioAssay AID328 (DTP/NCI, 2004).
The list shows only some results of the screen, not a fair sample: it gathers tests that were run many times, whatever their T/C, doses with no T/C, and many T/C values between a quarter and a half above the control. Other doses and runs of a compound stand elsewhere. T/C is the treated group as % of the vehicle group. Some doses have a count of surviving animals in place of a T/C: the source holds a T/C of zero for them, seemingly a mark for toxic or unscored doses. Some doses without a T/C left all or most animals alive at the check, yet need not have been tolerated: survival well below the control is almost never listed, so the zero probably covers shortened survival too. Counts of survivors are from the toxicity check (mostly the fifth day) where no day follows; animals may have died later. Schedules are NCI's codes, taken here to give the interval after Q, in days (D) or hours (H), and the number of doses after X. Some doses were run more than once; their values stand side by side, smallest first. Where survival is the endpoint, this PubChem deposit counts one and a half times the control or more as active, and values a quarter to a half above the control carry no call in these data; other NCI protocols may use other cut-offs. Some T/C values are followed by the survivors on the day toxicity was checked, most often the fifth; where none is given, no animal had died by that day.

System: BDF1 mice, P388 leukemia ip, median survival T/C
Assay: NCI In Vivo Anticancer Drug Screen. Data for tumor model P388 Leukemia (intraperitoneal) in B6D2F1 (BDF1) mice
Conditions: T/C endpoint: median survival time, higher T/C = longer survival
How it was run: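 Compound-treated tumour-bearing mice were compared with vehicle-treated controls. Survival was recorded, and the value is the treated-group measurement divided by the control-group measurement (T/C).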

[1] = dose: 40.0 mg/kg/injection, schedule: Q01DX009 (ip), vehicle: saline

SMILES: Nc1ccc2nc3ccc(N)cc3[n+](-c3ccccc3)c2c1
- T/C (dose: 0.5 mg/kg/injection, schedule: Q03HX024 (ip), vehicle: saline): 130 % of control
- T/C (dose: 1.0 mg/kg/injection, schedule: Q01DX009 (ip), vehicle: saline): 138 % of control
- T/C (dose: 1.0 mg/kg/injection, schedule: Q03HX016 (ip), vehicle: saline): 130 % of control
- T/C (dose: 2.0 mg/kg/injection, schedule: Q01DX009 (ip), vehicle: saline, evaluated on day 30): 144 % of control
- T/C (dose: 2.0 mg/kg/injection, schedule: Q01DX009 (ip), vehicle: saline, evaluated on day 60): 148 % of control
- T/C (dose: 2.0 mg/kg/injection, schedule: Q03HX008 (ip), vehicle: saline): 131 % of control [7 of 10 alive]
- T/C (dose: 2.0 mg/kg/injection, schedule: Q03HX016 (ip), vehicle: saline): 133 % of control [9 of 10 alive]
- T/C (dose: 2.25 mg/kg/injection, schedule: Q01DX009 (ip), vehicle: saline): 137 % of control
- T/C (dose: 3.12 mg/kg/injection, schedule: Q01DX009 (ip), vehicle: saline): 130 % of control
- T/C (dose: 4.0 mg/kg/injection, schedule: Q01DX009 (ip), vehicle: saline): 138 % of control [5 of 6 alive]
- survivor count (dose: 4.0 mg/kg/injection, schedule: Q03HX008 (ip), vehicle: saline): 6 of 10
- T/C (dose: 4.0 mg/kg/injection, schedule: Q04DX003 (ip), vehicle: saline): 125 % of control
- T/C (dose: 4.1 mg/kg/injection, schedule: Q01DX009 (ip), vehicle: saline): 137 and 145 % of control
- T/C (dose: 4.5 mg/kg/injection, schedule: Q01DX009 (ip), vehicle: saline): 133 and 141 % of control
- T/C (dose: 6.0 mg/kg/injection, schedule: Q01DX009 (ip), vehicle: saline): 127 % of control
- T/C (dose: 6.25 mg/kg/injection, schedule: Q01DX009 (ip), vehicle: saline): 133 [4 of 6 alive] and 147 % of control
- T/C (dose: 8.0 mg/kg/injection, schedule: Q01DX009 (ip), vehicle: saline): 136 % of control
- survivor count (dose: 8.0 mg/kg/injection, schedule: Q03HX008 (ip), vehicle: saline): 3 of 10
- survivor count (dose: 8.0 mg/kg/injection, schedule: Q03HX016 (ip), vehicle: saline): 4 of 10
- survivor count (dose: 8.0 mg/kg/injection, schedule: Q03HX024 (ip), vehicle: saline): 7 of 10
- T/C (dose: 8.0 mg/kg/injection, schedule: Q04DX003 (ip), vehicle: saline): 132 % of control [9 of 10 alive]
- T/C (dose: 9.3 mg/kg/injection, schedule: Q01DX009 (ip), vehicle: saline): 141 % of control
- survivor count (dose: 12.5 mg/kg/injection, schedule: Q01DX009 (ip), vehicle: saline): 3 of 6
- T/C (dose: 12.5 mg/kg/injection, schedule: Q04DX003 (ip), vehicle: saline): 145 % of control
- T/C (dose: 16.0 mg/kg/injection, schedule: Q01DX001 (ip), vehicle: saline): 127 % of control
- survivor count (dose: 16.0 mg/kg/injection, schedule: Q03HX008 (ip), vehicle: saline): 0 of 10
- survivor count (dose: 16.0 mg/kg/injection, schedule: Q03HX016 (ip), vehicle: saline): 0 of 10
- T/C (dose: 16.0 mg/kg/injection, schedule: Q04DX003 (ip), vehicle: saline): 138 % of control [9 of 10 alive]
- survivor count (dose: 25.0 mg/kg/injection, schedule: Q01DX009 (ip), vehicle: saline): 3 of 6
- survivor count (dose: 27.0 mg/kg/injection, schedule: Q01DX009 (ip), vehicle: saline): 0 of 6 and 3 of 6
- survivor count (dose: 32.0 mg/kg/injection, schedule: Q01DX001 (ip), vehicle: saline): 5 of 10
- survivor count (dose: 32.0 mg/kg/injection, schedule: Q01DX009 (ip), vehicle: saline): 2 of 10
- survivor count (dose: 32.0 mg/kg/injection, schedule: Q03HX008 (ip), vehicle: saline): 0 of 10
- T/C (dose: 32.0 mg/kg/injection, schedule: Q08DX002 (ip), vehicle: saline): 134 % of control [8 of 10 alive]
- survivor count [1]: 0 of 6 and 6 of 6
- survivor count (dose: 50.0 mg/kg/injection, schedule: Q01DX009 (ip), vehicle: saline): 1 of 6
- survivor count (dose: 50.0 mg/kg/injection, schedule: Q04DX003 (ip), vehicle: saline): 5 of 6
- survivor count (dose: 60.0 mg/kg/injection, schedule: Q01DX009 (ip), vehicle: saline): 4 of 6
- survivor count (dose: 64.0 mg/kg/injection, schedule: Q01DX001 (ip), vehicle: saline): 3 of 10
- survivor count (dose: 64.0 mg/kg/injection, schedule: Q04DX003 (ip), vehicle: saline): 4 of 10
- survivor count (dose: 64.0 mg/kg/injection, schedule: Q08DX002 (ip), vehicle: saline): 0 of 10
- survivor count (dose: 75.0 mg/kg/injection, schedule: Q04DX003 (ip), vehicle: saline): 0 of 6
- survivor count (dose: 128.0 mg/kg/injection, schedule: Q01DX001 (ip), vehicle: saline): 0 of 10
- survivor count (dose: 128.0 mg/kg/injection, schedule: Q08DX002 (ip), vehicle: saline): 0 of 10
- survivor count (dose: 256.0 mg/kg/injection, schedule: Q01DX001 (ip), vehicle: saline): 0 of 10

SMILES: CC(=O)Oc1cc2cnc3c4cc(OC(C)=O)c(OC(C)=O)cc4ccc3c2cc1OC(C)=O
- survivor count (dose: 10.0 mg/kg/injection, schedule: Q01DX009 (ip), vehicle: saline): 5 of 6
- survivor count (dose: 20.0 mg/kg/injection, schedule: Q01DX009 (ip), vehicle: saline): 6 of 6
- survivor count [1]: 5 of 6 and 6 of 6
- survivor count (dose: 80.0 mg/kg/injection, schedule: Q01DX009 (ip), vehicle: saline): 6 of 6

SMILES: CC(C)OC(=O)C1(N)CCCC1
- T/C (dose: 264.0 mg/kg/injection, schedule: Q04DX003 (ip), vehicle: saline with Tween-80): 130 % of control
- T/C (dose: 264.0 mg/kg/injection, schedule: Q04DX003 (ip), vehicle: saline): 125 % of control

SMILES: O=C(Nc1ccc(C2=NCCN2)cc1)c1ccc(C(=O)Nc2ccc(C3=NCCN3)cc2)c([N+](=O)[O-])c1
- survivor count (dose: 18.0 mg/kg/injection, schedule: Q01DX010 (ip), vehicle: saline): 5 of 6

SMILES: CCCCCCCCCCCCO[P+](=O)OCCCCCCCCCCCC
- survivor count (dose: 100.0 mg/kg/injection, schedule: Q04DX003 (ip), vehicle: saline sonified): 4 of 6
- T/C (dose: 132.0 mg/kg/injection, schedule: Q01DX009 (ip), vehicle: saline with Tween-80): 125 % of control [5 of 6 alive]
- T/C (dose: 200.0 mg/kg/injection, schedule: Q01DX009 (ip), vehicle: saline with Tween-80): 125 % of control
- survivor count (dose: 300.0 mg/kg/injection, schedule: Q01DX009 (ip), vehicle: saline with Tween-80): 5 of 6

SMILES: CC(=O)OCc1ccc(-n2c(C(F)(F)F)nc3nc(Cl)c(Cl)nc32)o1
- survivor count (dose: 200.0 mg/kg/injection, schedule: Q01DX009 (ip), vehicle: saline): 5 of 6
- survivor count (dose: 400.0 mg/kg/injection, schedule: Q01DX009 (ip), vehicle: saline): 4 of 6

SMILES: CCOC(=O)NC(=O)CC
- T/C (dose: 400.0 mg/kg/injection, schedule: Q01DX005 (ip), vehicle: saline): 133 % of control
- T/C (dose: 400.0 mg/kg/injection, schedule: Q04DX003 (ip), vehicle: saline): 126 % of control

SMILES: O=C(O)C(O)C(O)C(O)C(O)CO.[Mn] (centres undefined)
- T/C (dose: 66.0 mg/kg/injection, schedule: Q01DX009 (ip), vehicle: saline sonified): 125 % of control
- T/C (dose: 100.0 mg/kg/injection, schedule: Q01DX009 (ip), vehicle: saline sonified): 133 % of control
- T/C (dose: 150.0 mg/kg/injection, schedule: Q01DX009 (ip), vehicle: saline sonified): 129 % of control
- T/C (dose: 150.0 mg/kg/injection, schedule: Q01DX009 (ip), vehicle: saline): 125 % of control

SMILES: O=C1c2ccccc2C(=O)N1CCC[P+](c1ccccc1)(c1ccccc1)c1ccccc1
- T/C (dose: 3.13 mg/kg/injection, schedule: Q01DX009 (ip), vehicle: Klucel (hydroxypropylcellulose) (HPC)): 125 and 129 % of control
- T/C (dose: 6.25 mg/kg/injection, schedule: Q01DX009 (ip), vehicle: Klucel (hydroxypropylcellulose) (HPC)): 133 and 136 % of control
- T/C (dose: 12.5 mg/kg/injection, schedule: Q01DX009 (ip), vehicle: Klucel (hydroxypropylcellulose) (HPC)): 138 % of control
- survivor count (dose: 25.0 mg/kg/injection, schedule: Q01DX009 (ip), vehicle: Klucel (hydroxypropylcellulose) (HPC)): 2 of 6

SMILES: Clc1ncnc2c1ncn2C1CCCCO1 (centres undefined)
- survivor count (dose: 200.0 mg/kg/injection, schedule: Q01DX009 (ip), vehicle: other): 4 of 6
